Laboratory results as given in PMC7954794, “Protein context shapes the specificity of SH3 domain-mediated interactions in vivo” (Nature Communications, 2021).
No dose or concentration is given here for some results.

B1: YLR337C (protein, UniProt P37370 1-817, looked up)
Verprolin: MAGAPAPPPPPPPPALGGSAPKPAKSVMQGRDALLGDIRKGMKLKKAETNDRSAPIVGGGVVSSASGSSGTVSSKGPSMSAPPIPGMGAPQLGDILAGGIPKLKHINNNASTKPSPSASAPPIPGAVPSVAAPPIPNAPLSPAPAVPSIPSSSAPPIPDIPSSAAPPIPIVPSSPAPPLPLSGASAPKVPQNRPHMPSVRPAHRSHQRKSSNISLPSVSAPPLPSASLPTHVSNPPQAPPPPPTPTIGLDSKNIKPTDNAVSPPSSEVPAGGLPFLAEINARRSERGAVEGVSSTKIQTENHKSPSQPPLPSSAPPIPTSHAPPLPPTAPPPPSLPNVTSAPKKATSAPAPPPPPLPAAMSSASTNSVKATPVPPTLAPPLPNTTSVPPNKASSMPAPPPPPPPPPGAFSTSSALSASSIPLAPLPPPPPPSVATSVPSAPPPPPTLTTNKPSASSKQSKISSSSSSSAVTPGGPLPFLAEIQKKRDDRFVVGGDTGYTTQDKQEDVIGSSKDDNVRPSPISPSINPPKQSSQNGMSFLDEIESKLHKQTSSNAFNAPPPHTDAMAPPLPPSAPPPPITSLPTPTASGDDHTNDKSETVLGMKKAKAPALPGHVPPPPVPPVLSDDSKNNVPAASLLHDVLPSSNLEKPPSPPVAAAPPLPTFSAPSLPQQSVSTSIPSPPPVAPTLSVRTETESISKNPTKSPPPPPSPSTMDTGTSNSPSKNLKQRLFSTGGSTLQHKHNTHTNQPDVDVGRYTIGGSNSIVGAKSGNERIVIDDSRFKWTNVSQMPKPRPFQNKTKLYPSGKGSSVPLDLTLFT
B2: YKR048C (protein, UniProt P25293 1-417, looked up)
Nucleosome assembly protein: MSDPIRTKPKSSMQIDNAPTPHNTPASVLNPSYLKNGNPVRAQAQEQDDKIGTINEEDILANQPLLLQSIQDRLGSLVGQDSGYVGGLPKNVKEKLLSLKTLQSELFEVEKEFQVEMFELENKFLQKYKPIWEQRSRIISGQEQPKPEQIAKGQEIVESLNETELLVDEEEKAQNDSEEEQVKGIPSFWLTALENLPIVCDTITDRDAEVLEYLQDIGLEYLTDGRPGFKLLFRFDSSANPFFTNDILCKTYFYQKELGYSGDFIYDHAEGCEISWKDNAHNVTVDLEMRKQRNKTTKQVRTIEKITPIESFFNFFDPPKIQNEDQDEELEEDLEERLALDYSIGEQLKDKLIPRAVDWFTGAALEFEFEEDEEEADEDEDEEEDDDHGLEDDDGESAEEQDDFAGRPEQAPECKQS
B3: YIR006C (protein, UniProt P32521 1-1480, looked up)
Actin cytoskeleton-regulatory …: MYNPYQQQGMGYQQQQQQQQQQPNGFYPQQQQGQSSNQPQGQPQPQQQMAFNQPQATGIGGMPQSFGNSFSSMPQQPQTGYNNNGNNGSVYGNGNFGQQPQQQQQQAKPQHTGYVPNSSMPMMNTTGTMPPPNPAQQPQLQSIQPQGTGYYQAANTANVHSVQPLQSQGTGYYVSTPNLISSNQTQQPLQAQGTGYYQSQPQQVPPPQQAQSLQPLKPQQTGFYLQPQNQAPLEPLKPTATGFVNSFANNGLNNDIKIPAIRLSFITAQDQAKFETLFRSIVTNGSNTVSGANCRKILMRSGLPPSQLARIWTLCDTSKAGELLFPEFALAMHLINDVLQGDTIPYELDSKTKNEVSSFIDAINLSIANQDSSANDAPKTPFDEFITAGVQNLQPQPTGYMPQTSFGIPLQSQITGGGVASALNPQSTGFMAPTTFNMSMNTGTPGLNPQITGGAPASMQPNITGNALQPQTTGMMPQTTGMMPQTTGMMPQTSFGVNLGPQLTGGALQSQYTGGYGSVMPQQSGPASMPNLSFNQQGLQSQLTGLQPQPTGFLPPSNFSATMPLTAQKTGFGNNEIYTKSNFNNNLIDNSSQDKISTEEKSLFYKIFETFDTQNKGLLDSPTAVEIFRKSGLNRADLEQIWNLCDINNTGQLNKQEFALGMHLVYGKLNGKPIPNVLPSSLIPSSTKLLDNLKNQLKTEPTTTKEKPSFGKIDALSYKNNDDDVLPNYRNRRKVYSAKNEEQSSFSSPSAKSVNHSSSTLQTDDISVDKTVEKKTAKPKYAGFSREINLKNIASLENEIKNISNPENCYDSSIPSDLTSRFDAIIAKLPNLFNEISTIDNEITNAKIQLYRKKNPSSIIGSGPNGEITENDRKKAKSRALLRARMSALTGKSTESEDSLSMEDEQQSAEIKRIQQENGKNQEIIKDIRSSISDISASLKSTMTGSNMISNQEFERWEFGIGLEDGVREFLDDLKSNSNKSVTESSPFVPSSTPTPVDDRSSSPSYSQFKTAEERAAYLKEQAKKRMKEKLAKFDKNRRNVTQSSRSISSENSREQPQQIAGSSNLVEPRATPFQEEKYVEVAQPTQPVQSTQPVQPTQPVQPTQPVQPTQPVQPTQPVQPTQPVQNVYNAKQESDDEDEDDEEKRLQEELKRLKLKKKADKEKRLAALRKQIEDAQNESDEEETNGKDNFGGHVNVPQAAPVAPSAAFSQNSTNAPRSVHAAVTPAAGKNSTGLPSTTMGHNPYFKDASASSTSTFDARAAEMQRRIQRGLDEDEDDGWSDEDESNNRVAVDNKVEEAKIGHPDHARAPPVTAAPLPSVTPVPPAVPVPQANTSNEKSSPIPIAPIPPSVTQEPPVPLAPPLPAVDGFQEPPIPSAPAIATAVQKSGSSTPALAGGVLPPPPPLPTQQASTSEPIIAHVDNYNGAEKGTGAYGSDSDDDVLSIPESVGTDEEEEGAQPVSTAGIPSIPPAGIPPPPPLP
B4: YAL041W (protein, UniProt P11433 1-854, looked up)
Cell division control protein …: MAIQTRFASGTSLSDLKPKPSATSISIPMQNVMNKPVTEQDSLFHICANIRKRLEVLPQLKPFLQLAYQSSEVLSERQSLLLSQKQHQELLKSNGANRDSSDLAPTLRSSSISTATSLMSMEGISYTNSNPSATPNMEDTLLTFSMGILPITMDCDPVTQLSQLFQQGAPLCILFNSVKPQFKLPVIASDDLKVCKKSIYDFILGCKKHFAFNDEELFTISDVFANSTSQLVKVLEVVETLMNSSPTIFPSKSKTQQIMNAENQHRHQPQQSSKKHNEYVKIIKEFVATERKYVHDLEILDKYRQQLLDSNLITSEELYMLFPNLGDAIDFQRRFLISLEINALVEPSKQRIGALFMHSKHFFKLYEPWSIGQNAAIEFLSSTLHKMRVDESQRFIINNKLELQSFLYKPVQRLCRYPLLVKELLAESSDDNNTKELEAALDISKNIARSINENQRRTENHQVVKKLYGRVVNWKGYRISKFGELLYFDKVFISTTNSSSEPEREFEVYLFEKIIILFSEVVTKKSASSLILKKKSSTSASISASNITDNNGSPHHSYHKRHSNSSSSNNIHLSSSSAAAIIHSSTNSSDNNSNNSSSSSLFKLSANEPKLDLRGRIMIMNLNQIIPQNNRSLNITWESIKEQGNFLLKFKNEETRDNWSSCLQQLIHDLKNEQFKARHHSSTSTTSSTAKSSSMMSPTTTMNTPNHHNSRQTHDSMASFSSSHMKRVSDVLPKRRTTSSSFESEIKSISENFKNSIPESSILFRISYNNNSNNTSSSEIFTLLVEKVWNFDDLIMAINSKISNTHNNNISPITKIKYQDEDGDFVVLGSDEDWNVAKEMLAENNEKFLNIRLY
B5: YBL085W (protein, UniProt P38041 1-980, looked up)
BEM1-interacting protein 1: MSLEGNTLGKGAKSFPLYIAVNQYSKRMEDELNMKPGDKIKVITDDGEYNDGWYYGRNLRTKEEGLYPAVFTKRIAIEKPENLHKSPTQESGNSGVKYGNLNDSASNIGKVSSHQQENRYTSLKSTMSDIDKALEELRSGSVEQEVSKSPTRVPEVSTPQLQDEQTLIQEKTRNEENTTHDSLFSSTADLNLSSESLKNISKSNISTKSLEPSSESVRQLDLKMAKSWSPEEVTDYFSLVGFDQSTCNKFKEHQVSGKILLELELEHLKELEINSFGIRFQIFKEIRNIKSAIDSSSNKLDADYSTFAFENQAAQLMPAATVNRDEIQQQISSKCNKLSSESSDRKSSSVTTELQRPSSVVVNPNFKLHDPAEQILDMTEVPNLFADKDIFESPGRAPKPPSYPSPVQPPQSPSFNNRYTNNNARFPPQTTYPPKNKNPTVYSNGLIPNSSTSSDNSTGKFKFPAMNGHDSNSRKTTLTSATIPSINTVNTDESLPAISNISSNATSHHPNRNSVVYNNHKRTESGSSFVDLFNRISMLSPVKSSFDEEETKQPSKASRAVFDSARRKSSYGHSRDASLSEMKKHRRNSSILSFFSSKSQSNPTSPTKQTFTIDPAKMTSHSRSQSNSYSHARSQSYSHSRKHSLVTSPLKTSLSPINSKSNIALAHSETPTSSNNKEAVSQPSEGKHKHKHKHKSKHKHKNSSSKDGSSEEKSKKKLFSSTKESFVGSKEFKRSPSELTQKSTKSILPRSNAKKQQTSAFTEGIRSITAKESMQTADCSGWMSKKGTGAMGTWKQRFFTLHGTRLSYFTNTNDEKERGLIDITAHRVLPASDDDRLISLYAASLGKGKYCFKLVPPQPGSKKGLTFTEPRVHYFAVENKSEMKAWLSAIIKATIDIDTSVPVISSYATPTIPLSKAQTLLEEARLQTQLRDAEEEEGRDQFGWDDTQNKRNSNYPIEQDQFETSDYLESSAFEYPGGRL
B6: YER114C (protein)
chain: PMYIAINEYFKRMEDELDMKPGDKIKVITDDEEYKDGWYFGRNLRTNEEGLYPVVFTQKIT
B7: YDR166C (protein, UniProt P89102 1-971, looked up)
Exocyst complex component SEC5: MDRFQIGDEQLLRFYQLKTINPTHSWAQDSSKLNNEEATSNELGVETSFDILKDFKYGNQISIDKESRAYLNDESLSYIRDPLNGQEMSKELQHLPNDSMRLNYLVNSKQFNVKAFLRDMHKQDSFNDLNNSLDRLDSDIQDQSIHLKQLVGKNFTKYVKIKNKLDQIYKEFDEKTNEKNQCDSPKENQINVESLNKKVDEVIRTTTFKLKPLMDNYQKILNYQATKKFIELNKFYFNLPKSLKRCLTNNDFNEFIIEYSKGLTLRRRFNQSSDASQSLVIKRIWTQIENLLVTYKDLIWNSLINSNFNIDQPQETILSLFSKLLNLENFINNNQRESESGNKNTTSSSNENPILRWMSIKMNGFQNELNELSGHMISKIIHSQRLILQNNTNQDKSQGCVELSYYLKINQLFQIISDTGKDSEGLKSTVEPNKVNTISGTSYLNLNCQPSSQGLTDSPTIIEMWLLILKYINDLWKICDQFIEFWEHIEKFLDGTYQNSIINEKRKENILIGDSNIIESYQKSLILKEEQINEVRLKGEEFITSVSQNLISFFTSSQSSLPSSLKDSTGDITRSNKDSGSPLDYGFIPPNCNGLSCLRYLPKIVEPILKFSTELAQLNITTNGITICRNTLSTIINRCVGAISSTKLRDISNFYQLENWQVYETVTFSSKSQDSSKNLTFEYGVTQFPEIVTSFQEVSIKTTRDLLFAYEKLPIINGISVVSYPSKQLLTGIEIQQIISMEAVLEAILKNAAKDKDNPRNSHTILTLTNLQYFRECAFPNILQYFDDAFEWNLASKNLELFSLLSKMESSIFGNYLSDLKINLRDTLEEKFHEINWPMYTSNSFRVGDYIIEALMILIVVHSECFRIGPQLIHKILIETQIFIARYLFEAFKPYVGNLSNDGSLQIIVDLEFFQKVMGPLLEKDTEATLRACLQNCFQNDTNRLQKCINEINPIVSANLKRTAIQFAAFS

tested on: BBC1; assay: DHFR-PCA on solid medium, bait BBC1 (Fig. 1B); type: cell-based, Saccharomyces cerevisiae; parameters: key: 0: SH3-independent; 1: SH3-dependent PPIs; 2: SH3-inhibited PPIs; conditions: bait BBC1, label = prey
Description: (§1) Supplement 41467_2021_21873_MOESM8_ESM.xlsx, sheet "Fig1B" | column: medsize; medrep; Ratio; Score

Q: B1 was tested. Which Score did it give?
A: 1

Q: For B2, which Score is on record?
A: 1

Q: B3 was tested. Which Score did it give?
A: 1

tested on: BOI1; assay: DHFR-PCA on solid medium, bait BOI1 (Fig. 1B); type: cell-based, Saccharomyces cerevisiae; parameters: key: 0: SH3-independent; 1: SH3-dependent PPIs; 2: SH3-inhibited PPIs; conditions: bait BOI1, label = prey
Description: as §1

Q: How did the Score turn out when B4 was run?
A: 0

Q: B5 was tested. Which Score did it give?
A: 0

tested on: BOI2; assay: DHFR-PCA on solid medium, bait BOI2 (Fig. 1B); type: cell-based, Saccharomyces cerevisiae; parameters: key: 0: SH3-independent; 1: SH3-dependent PPIs; 2: SH3-inhibited PPIs; conditions: bait BOI2, label = prey
Description: as §1

Q: For B4, which Score is on record?
A: 0

Q: With B5 as the molecule, how does the Score read?
A: 0

Q: B6 was tested. Which Score did it give?
A: 0

Q: B7 was tested. Which Score did it give?
A: 1

Q: With B2 as the molecule, how does the Score read?
A: 2
